{"sequences": {"note": "The chains behind the UniProt entries cited, without tags or fusion partners. Where a name states a change or a piece, a line headed by the entry shows the natural chain unless it says otherwise.", "UniProt Q9C0K1": "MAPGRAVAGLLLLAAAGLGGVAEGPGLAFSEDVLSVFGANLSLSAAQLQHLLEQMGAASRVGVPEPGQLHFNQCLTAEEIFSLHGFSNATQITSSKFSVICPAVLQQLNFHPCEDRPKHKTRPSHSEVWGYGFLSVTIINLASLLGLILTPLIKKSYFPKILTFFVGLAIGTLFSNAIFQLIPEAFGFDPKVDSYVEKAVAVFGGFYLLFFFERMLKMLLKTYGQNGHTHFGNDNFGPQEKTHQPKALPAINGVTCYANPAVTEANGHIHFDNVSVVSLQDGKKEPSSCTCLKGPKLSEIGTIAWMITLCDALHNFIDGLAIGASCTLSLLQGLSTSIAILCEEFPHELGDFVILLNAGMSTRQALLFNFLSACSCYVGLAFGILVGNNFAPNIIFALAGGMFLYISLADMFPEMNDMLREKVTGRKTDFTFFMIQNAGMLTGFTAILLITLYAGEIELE", "UniProt P78383": "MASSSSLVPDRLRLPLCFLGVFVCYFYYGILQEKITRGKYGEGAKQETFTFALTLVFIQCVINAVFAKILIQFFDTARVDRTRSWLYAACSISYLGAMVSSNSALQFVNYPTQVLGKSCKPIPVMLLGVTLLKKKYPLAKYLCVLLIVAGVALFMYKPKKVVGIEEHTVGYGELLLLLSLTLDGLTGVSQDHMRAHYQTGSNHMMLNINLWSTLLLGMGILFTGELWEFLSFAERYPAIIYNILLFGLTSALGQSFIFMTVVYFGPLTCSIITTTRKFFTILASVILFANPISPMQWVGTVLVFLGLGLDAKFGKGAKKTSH", "UniProt Q9Y2D2": "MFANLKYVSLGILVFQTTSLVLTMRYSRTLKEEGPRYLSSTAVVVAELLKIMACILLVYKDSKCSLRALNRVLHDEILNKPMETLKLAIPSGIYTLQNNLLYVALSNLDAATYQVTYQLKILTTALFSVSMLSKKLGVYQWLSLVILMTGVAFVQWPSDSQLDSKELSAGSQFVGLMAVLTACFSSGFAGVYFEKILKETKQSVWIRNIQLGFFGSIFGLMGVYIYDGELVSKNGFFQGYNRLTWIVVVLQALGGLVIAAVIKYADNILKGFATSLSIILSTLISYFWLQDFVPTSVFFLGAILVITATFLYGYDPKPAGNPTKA", "UniProt P16260": "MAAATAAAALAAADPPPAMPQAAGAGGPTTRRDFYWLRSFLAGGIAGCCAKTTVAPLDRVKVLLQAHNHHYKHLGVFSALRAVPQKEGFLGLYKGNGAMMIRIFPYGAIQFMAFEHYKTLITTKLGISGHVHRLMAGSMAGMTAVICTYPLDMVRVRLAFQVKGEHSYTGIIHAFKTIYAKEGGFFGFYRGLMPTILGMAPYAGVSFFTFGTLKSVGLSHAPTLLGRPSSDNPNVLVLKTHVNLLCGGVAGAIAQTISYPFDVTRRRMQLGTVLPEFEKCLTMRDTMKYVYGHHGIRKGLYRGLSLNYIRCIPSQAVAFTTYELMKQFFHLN", "UniProt Q96CQ1": "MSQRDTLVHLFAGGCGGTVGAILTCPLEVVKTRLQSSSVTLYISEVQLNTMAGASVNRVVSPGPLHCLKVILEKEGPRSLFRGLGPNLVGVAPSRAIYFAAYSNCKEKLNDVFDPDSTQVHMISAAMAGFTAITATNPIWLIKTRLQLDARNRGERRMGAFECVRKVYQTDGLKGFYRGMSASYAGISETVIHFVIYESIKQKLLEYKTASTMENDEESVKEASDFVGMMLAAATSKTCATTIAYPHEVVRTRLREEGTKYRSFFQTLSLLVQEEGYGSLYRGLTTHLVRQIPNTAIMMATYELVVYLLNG", "UniProt Q9NP59": "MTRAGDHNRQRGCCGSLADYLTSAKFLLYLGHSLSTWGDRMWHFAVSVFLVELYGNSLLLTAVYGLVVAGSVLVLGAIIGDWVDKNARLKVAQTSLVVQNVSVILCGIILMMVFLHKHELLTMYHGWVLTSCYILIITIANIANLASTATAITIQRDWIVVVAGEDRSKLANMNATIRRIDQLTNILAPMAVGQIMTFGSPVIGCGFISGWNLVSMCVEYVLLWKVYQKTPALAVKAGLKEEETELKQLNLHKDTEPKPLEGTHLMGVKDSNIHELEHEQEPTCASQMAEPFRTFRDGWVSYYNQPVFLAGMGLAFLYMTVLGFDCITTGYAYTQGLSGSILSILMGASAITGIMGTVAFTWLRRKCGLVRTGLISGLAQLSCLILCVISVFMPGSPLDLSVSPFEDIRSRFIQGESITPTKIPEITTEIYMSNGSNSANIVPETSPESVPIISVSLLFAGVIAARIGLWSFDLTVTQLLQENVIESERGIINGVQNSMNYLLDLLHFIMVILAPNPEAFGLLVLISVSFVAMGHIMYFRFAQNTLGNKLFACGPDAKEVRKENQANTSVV", "UniProt O95391": "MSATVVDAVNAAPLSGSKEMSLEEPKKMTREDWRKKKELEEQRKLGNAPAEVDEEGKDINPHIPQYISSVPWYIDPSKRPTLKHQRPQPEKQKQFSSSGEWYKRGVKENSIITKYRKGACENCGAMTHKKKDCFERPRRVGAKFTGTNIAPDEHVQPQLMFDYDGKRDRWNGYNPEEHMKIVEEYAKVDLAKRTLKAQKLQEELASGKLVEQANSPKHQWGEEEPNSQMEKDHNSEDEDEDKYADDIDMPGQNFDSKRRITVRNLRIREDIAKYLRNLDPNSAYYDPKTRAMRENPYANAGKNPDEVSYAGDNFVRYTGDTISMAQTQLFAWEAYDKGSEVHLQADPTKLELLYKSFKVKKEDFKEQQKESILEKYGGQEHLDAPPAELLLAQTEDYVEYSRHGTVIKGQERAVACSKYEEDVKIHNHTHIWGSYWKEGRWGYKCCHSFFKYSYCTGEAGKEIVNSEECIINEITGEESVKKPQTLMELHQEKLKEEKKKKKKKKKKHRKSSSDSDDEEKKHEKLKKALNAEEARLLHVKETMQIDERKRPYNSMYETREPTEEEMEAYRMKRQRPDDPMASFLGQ", "UniProt Q8IVJ1": "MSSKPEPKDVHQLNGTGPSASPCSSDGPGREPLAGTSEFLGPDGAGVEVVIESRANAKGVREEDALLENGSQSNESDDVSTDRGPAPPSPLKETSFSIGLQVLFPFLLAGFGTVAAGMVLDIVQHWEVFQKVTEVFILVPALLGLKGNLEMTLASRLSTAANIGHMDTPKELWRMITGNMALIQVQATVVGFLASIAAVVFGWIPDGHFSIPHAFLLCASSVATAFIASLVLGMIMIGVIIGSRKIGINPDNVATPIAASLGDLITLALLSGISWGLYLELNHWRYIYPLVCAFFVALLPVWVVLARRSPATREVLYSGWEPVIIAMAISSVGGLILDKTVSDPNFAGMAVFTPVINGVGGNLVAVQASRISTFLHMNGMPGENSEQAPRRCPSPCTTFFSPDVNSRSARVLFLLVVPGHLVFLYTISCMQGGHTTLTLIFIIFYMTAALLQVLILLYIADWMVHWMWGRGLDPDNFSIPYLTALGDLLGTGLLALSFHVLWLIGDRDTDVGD", "UniProt Q13433": "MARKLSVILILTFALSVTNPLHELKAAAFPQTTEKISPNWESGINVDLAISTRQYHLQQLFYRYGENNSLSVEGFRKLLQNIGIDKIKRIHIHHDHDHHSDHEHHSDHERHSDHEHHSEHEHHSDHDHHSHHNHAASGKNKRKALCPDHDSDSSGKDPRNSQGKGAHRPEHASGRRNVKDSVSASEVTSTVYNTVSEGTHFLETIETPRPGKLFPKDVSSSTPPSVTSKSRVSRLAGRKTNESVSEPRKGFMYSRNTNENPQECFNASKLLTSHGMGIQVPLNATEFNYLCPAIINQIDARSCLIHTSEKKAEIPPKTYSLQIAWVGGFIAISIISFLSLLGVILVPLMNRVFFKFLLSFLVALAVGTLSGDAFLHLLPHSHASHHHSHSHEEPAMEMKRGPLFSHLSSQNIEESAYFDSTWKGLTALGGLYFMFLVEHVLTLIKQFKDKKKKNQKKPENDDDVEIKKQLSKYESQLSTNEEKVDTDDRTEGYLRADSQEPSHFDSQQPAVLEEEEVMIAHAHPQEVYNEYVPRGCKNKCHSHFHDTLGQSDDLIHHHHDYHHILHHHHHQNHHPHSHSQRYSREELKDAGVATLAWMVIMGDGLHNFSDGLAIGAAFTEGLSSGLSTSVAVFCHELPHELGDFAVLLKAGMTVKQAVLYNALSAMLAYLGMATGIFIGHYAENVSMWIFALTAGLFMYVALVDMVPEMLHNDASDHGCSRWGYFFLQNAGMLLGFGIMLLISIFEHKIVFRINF", "UniProt P78382": "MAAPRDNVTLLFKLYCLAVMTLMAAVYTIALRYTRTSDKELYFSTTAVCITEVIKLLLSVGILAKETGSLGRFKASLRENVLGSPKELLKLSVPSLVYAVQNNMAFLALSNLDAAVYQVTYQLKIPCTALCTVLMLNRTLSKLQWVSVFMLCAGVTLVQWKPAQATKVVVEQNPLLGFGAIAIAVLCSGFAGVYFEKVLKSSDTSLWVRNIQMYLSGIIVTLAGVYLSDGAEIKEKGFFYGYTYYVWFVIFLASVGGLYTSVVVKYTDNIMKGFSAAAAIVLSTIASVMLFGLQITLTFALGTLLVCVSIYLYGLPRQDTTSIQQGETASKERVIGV", "UniProt Q9BZD2": "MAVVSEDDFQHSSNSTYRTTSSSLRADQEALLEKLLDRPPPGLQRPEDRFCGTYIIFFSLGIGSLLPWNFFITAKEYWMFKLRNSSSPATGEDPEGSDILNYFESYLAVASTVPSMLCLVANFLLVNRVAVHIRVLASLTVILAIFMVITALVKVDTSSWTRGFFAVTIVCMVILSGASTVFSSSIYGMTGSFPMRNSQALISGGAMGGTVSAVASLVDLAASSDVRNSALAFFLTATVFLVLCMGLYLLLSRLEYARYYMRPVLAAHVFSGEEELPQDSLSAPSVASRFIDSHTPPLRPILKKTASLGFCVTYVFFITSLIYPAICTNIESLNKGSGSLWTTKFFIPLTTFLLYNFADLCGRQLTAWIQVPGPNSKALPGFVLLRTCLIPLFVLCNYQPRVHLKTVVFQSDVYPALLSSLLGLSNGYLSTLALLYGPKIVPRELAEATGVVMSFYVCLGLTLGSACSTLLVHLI", "UniProt Q8N2U9": "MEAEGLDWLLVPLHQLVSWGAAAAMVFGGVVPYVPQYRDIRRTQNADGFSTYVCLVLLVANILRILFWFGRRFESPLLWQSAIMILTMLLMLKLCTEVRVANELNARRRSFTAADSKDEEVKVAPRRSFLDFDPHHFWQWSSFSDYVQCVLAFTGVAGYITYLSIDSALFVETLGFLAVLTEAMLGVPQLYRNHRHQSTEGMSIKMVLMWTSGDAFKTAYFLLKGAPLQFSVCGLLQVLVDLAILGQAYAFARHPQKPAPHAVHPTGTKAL", "UniProt Q9UGH3": "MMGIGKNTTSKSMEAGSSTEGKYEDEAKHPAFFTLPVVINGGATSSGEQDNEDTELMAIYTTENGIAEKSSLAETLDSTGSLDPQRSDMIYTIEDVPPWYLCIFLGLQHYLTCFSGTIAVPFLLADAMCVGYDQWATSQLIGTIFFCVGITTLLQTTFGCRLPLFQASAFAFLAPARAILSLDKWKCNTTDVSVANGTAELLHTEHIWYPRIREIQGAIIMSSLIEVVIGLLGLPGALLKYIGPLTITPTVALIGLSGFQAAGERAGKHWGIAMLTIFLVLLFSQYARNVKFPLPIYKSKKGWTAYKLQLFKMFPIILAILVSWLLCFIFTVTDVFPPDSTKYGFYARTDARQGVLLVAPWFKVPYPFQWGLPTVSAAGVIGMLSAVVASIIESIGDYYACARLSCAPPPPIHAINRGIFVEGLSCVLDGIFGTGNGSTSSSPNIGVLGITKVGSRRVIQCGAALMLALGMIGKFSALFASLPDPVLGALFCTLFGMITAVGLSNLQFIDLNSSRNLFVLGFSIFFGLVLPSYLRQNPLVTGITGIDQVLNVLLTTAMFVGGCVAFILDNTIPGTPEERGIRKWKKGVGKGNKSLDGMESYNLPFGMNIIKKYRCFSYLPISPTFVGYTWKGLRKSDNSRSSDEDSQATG", "UniProt Q9BRV3": "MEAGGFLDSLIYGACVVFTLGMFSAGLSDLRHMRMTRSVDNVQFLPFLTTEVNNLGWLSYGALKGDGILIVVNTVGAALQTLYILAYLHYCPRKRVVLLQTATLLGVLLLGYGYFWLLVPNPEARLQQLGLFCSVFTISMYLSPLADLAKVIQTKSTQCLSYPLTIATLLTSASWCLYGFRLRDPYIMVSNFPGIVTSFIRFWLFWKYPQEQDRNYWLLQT", "UniProt Q9BV35": "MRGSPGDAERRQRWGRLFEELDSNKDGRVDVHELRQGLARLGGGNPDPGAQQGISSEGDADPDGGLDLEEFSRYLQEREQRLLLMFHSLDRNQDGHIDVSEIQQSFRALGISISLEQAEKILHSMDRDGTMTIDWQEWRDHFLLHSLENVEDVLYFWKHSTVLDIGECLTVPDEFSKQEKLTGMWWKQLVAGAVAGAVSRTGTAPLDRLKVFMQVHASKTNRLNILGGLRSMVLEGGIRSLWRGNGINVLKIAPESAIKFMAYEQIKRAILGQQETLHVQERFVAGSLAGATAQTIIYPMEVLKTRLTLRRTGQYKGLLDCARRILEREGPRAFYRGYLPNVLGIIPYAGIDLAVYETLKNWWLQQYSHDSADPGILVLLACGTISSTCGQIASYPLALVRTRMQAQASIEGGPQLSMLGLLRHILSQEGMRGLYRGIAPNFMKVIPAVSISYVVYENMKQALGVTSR"}, "source": "the supplement of paper PMC10849652", "note": "The other results are listed elsewhere or left out."}
{"compound": "Cn1cncc1[C@@](N)(c1ccc(Cl)cc1)c1ccc2c(c1)c(-c1cccc(Cl)c1)cc(=O)n2C [tipifarnib]", "experiment": "log2 fold change, soluble protein after heating vs DMSO (PISA); higher = thermal stabilisation; K562 lysate, 10 uM; active = over 0.2 and 3.5 SD of the protein, either way, in both replicates (recomputed)", "procedure,_shortened": "(§1)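 The values are log-two fold changes in thermal stability compared with solvent controls and come from duplicates. They were obtained by TMTpro 16plex LC-MS/MS, with channel sums equalised, on the supernatant after 21,000xg for 90 min. That supernatant came from crude K562 extract at 1 mg/mL protein treated with 10 μM compound for 30 min, heated for 3 min across 48°C-58°C, pooled and brought to 0.5% NP-40 at 4°C.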"}
{"target": "SLC39A8 (UniProt Q9C0K1)", "log2 fold change": "inactive: 0.02"}
{"target": "SLC25A39 (UniProt Q9BZJ4)", "log2 fold change": "inactive: -0.241"}
{"target": "SLC35B1 isoform 2 (UniProt P78383)", "log2 fold change": "inactive: -0.183"}
{"target": "SLC35A3 isoform 2 (UniProt Q9Y2D2)", "log2 fold change": "inactive: 0.069"}
{"target": "SLC25A16 (UniProt P16260)", "log2 fold change": "inactive: 0.171"}
{"target": "SMAD5 (UniProt Q99717)", "log2 fold change": "inactive: 0.277"}
{"target": "SLC25A36 (UniProt Q96CQ1)", "log2 fold change": "inactive: -0.119"}
{"target": "SLC40A1 (UniProt Q9NP59)", "log2 fold change": "inactive: -0.118"}
{"target": "SLU7 (UniProt O95391)", "log2 fold change": "inactive: -0.029"}
{"target": "SLC41A3 isoform 9 (UniProt Q96GZ6)", "log2 fold change": "inactive: -0.053"}
{"target": "SLC41A1 (UniProt Q8IVJ1)", "log2 fold change": "inactive: -0.02"}
{"target": "SMAD3 (UniProt P84022)", "log2 fold change": "inactive: -0.035"}
{"target": "SLC39A6 (UniProt Q13433)", "log2 fold change": "inactive: 0.019"}
{"target": "SMAGP (UniProt Q0VAQ4)", "log2 fold change": "inactive: -0.084"}
{"target": "SLCO4A1 (UniProt Q96BD0)", "log2 fold change": "inactive: 0.076"}
{"target": "SLC35A1 (UniProt P78382)", "log2 fold change": "inactive: -0.042"}
{"target": "SLC29A3 (UniProt Q9BZD2)", "log2 fold change": "inactive: 0.098"}
{"target": "SLC66A2 (UniProt Q8N2U9)", "log2 fold change": "inactive: -0.029"}
{"compound": "NC(=O)Nc1cc(-c2cccc(F)c2)sc1C(=O)N[C@H]1CCCNC1", "experiment": "log2 fold change, soluble protein after heating vs DMSO (PISA); higher = thermal stabilisation; K562 lysate, 10 uM; active = over 0.2 and 3.5 SD of the protein, either way, in both replicates (recomputed)", "procedure,_shortened": "as §1"}
{"target": "SLC39A8 (UniProt Q9C0K1)", "log2 fold change": "inactive: -0.008"}
{"target": "SLC66A3 (UniProt Q8N755)", "log2 fold change": "inactive: 0.038"}
{"target": "SLC35B1 isoform 2 (UniProt P78383)", "log2 fold change": "inactive: 0.144"}
{"target": "SLC35A3 isoform 2 (UniProt Q9Y2D2)", "log2 fold change": "inactive: 0"}
{"target": "SLC25A16 (UniProt P16260)", "log2 fold change": "inactive: 0.039"}
{"target": "SMAD5 (UniProt Q99717)", "log2 fold change": "inactive: -0.023"}
{"target": "SLC25A35 (UniProt Q3KQZ1)", "log2 fold change": "inactive: 0.08"}
{"target": "SLC25A36 (UniProt Q96CQ1)", "log2 fold change": "inactive: -0.08"}
{"target": "SLC40A1 (UniProt Q9NP59)", "log2 fold change": "inactive: 0.167"}
{"target": "SLU7 (UniProt O95391)", "log2 fold change": "inactive: 0.086"}
{"target": "SLC23A2 (UniProt Q9UGH3)", "log2 fold change": "inactive: 0.064"}
{"target": "SLC26A11 (UniProt Q86WA9)", "log2 fold change": "inactive: -0.132"}
{"target": "SLC9B2 (UniProt Q86UD5)", "log2 fold change": "inactive: 0.409"}
{"target": "SLC41A1 (UniProt Q8IVJ1)", "log2 fold change": "inactive: -0.003"}
{"target": "SMAD3 (UniProt P84022)", "log2 fold change": "inactive: -0.021"}
{"target": "SLC39A6 (UniProt Q13433)", "log2 fold change": "inactive: 0"}
{"target": "SMAGP (UniProt Q0VAQ4)", "log2 fold change": "inactive: 0.1"}
{"target": "SLFN14 (UniProt P0C7P3)", "log2 fold change": "inactive: 0"}
{"target": "SLC35D1 (UniProt Q9NTN3)", "log2 fold change": "inactive: -0.019"}
{"target": "SLC35A1 (UniProt P78382)", "log2 fold change": "inactive: -0.082"}
{"target": "SLC29A3 (UniProt Q9BZD2)", "log2 fold change": "inactive: -0.061"}
{"target": "SLC50A1 (UniProt Q9BRV3)", "log2 fold change": "inactive: -0.039"}
{"target": "SLC25A28 (UniProt Q96A46)", "log2 fold change": "inactive: 0.042"}
{"target": "SLC25A23 isoform 3 (UniProt Q9BV35)", "log2 fold change": "inactive: 0.03"}
{"compound": "NC(=O)c1cnc(N[C@@H]2CCCC[C@@H]2N)nc1Nc1cccc(-n2nccn2)c1", "experiment": "log2 fold change, soluble protein after heating vs DMSO (PISA); higher = thermal stabilisation; K562 lysate, 10 uM; active = over 0.2 and 3.5 SD of the protein, either way, in both replicates (recomputed)", "procedure,_shortened": "as §1"}
{"target": "SLC46A1 (UniProt Q96NT5)", "log2 fold change": "inactive: -0.075"}
{"target": "SLC39A8 (UniProt Q9C0K1)", "log2 fold change": "inactive: 0.055"}
{"target": "SLC66A3 (UniProt Q8N755)", "log2 fold change": "inactive: 0.138"}
{"target": "SLC35B1 isoform 2 (UniProt P78383)", "log2 fold change": "inactive: -0.008"}
{"target": "SLC35A3 isoform 2 (UniProt Q9Y2D2)", "log2 fold change": "inactive: 0.019"}
{"target": "SLC25A36 (UniProt Q96CQ1)", "log2 fold change": "inactive: 0.003"}
{"target": "SLC40A1 (UniProt Q9NP59)", "log2 fold change": "inactive: -0.035"}
{"target": "SLC23A2 (UniProt Q9UGH3)", "log2 fold change": "inactive: 0.033"}
{"target": "SLC43A3 (UniProt Q8NBI5)", "log2 fold change": "inactive: -0.136"}
{"target": "SLC9B2 (UniProt Q86UD5)", "log2 fold change": "inactive: 0.027"}
{"target": "SLC41A1 (UniProt Q8IVJ1)", "log2 fold change": "inactive: 0.014"}
{"target": "SMAD3 (UniProt P84022)", "log2 fold change": "inactive: -0.009"}
{"target": "SLC39A6 (UniProt Q13433)", "log2 fold change": "inactive: -0.042"}
{"target": "SMAGP (UniProt Q0VAQ4)", "log2 fold change": "inactive: 0.026"}
{"target": "SLC29A3 (UniProt Q9BZD2)", "log2 fold change": "inactive: -0.062"}
{"target": "SLC50A1 (UniProt Q9BRV3)", "log2 fold change": "inactive: 0.099"}
{"target": "SLC25A23 isoform 3 (UniProt Q9BV35)", "log2 fold change": "inactive: -0.403"}
{"target": "SLC8B1 (UniProt Q6J4K2)", "log2 fold change": "inactive: -0.011"}
{"target": "SLC66A2 (UniProt Q8N2U9)", "log2 fold change": "inactive: 0.103"}
{"compound": "NC1(c2ccc(-c3nc4ccn5c(=O)[nH]nc5c4cc3-c3ccccc3)cc2)CCC1", "experiment": "log2 fold change, soluble protein after heating vs DMSO (PISA); higher = thermal stabilisation; K562 lysate, 10 uM; active = over 0.2 and 3.5 SD of the protein, either way, in both replicates (recomputed)", "procedure,_shortened": "as §1"}
{"target": "SLC46A1 (UniProt Q96NT5)", "log2 fold change": "inactive: -0.02"}
{"target": "SLC39A8 (UniProt Q9C0K1)", "log2 fold change": "inactive: -0.023"}
{"target": "SLC25A39 (UniProt Q9BZJ4)", "log2 fold change": "inactive: 0.082"}
{"target": "SLX4 (UniProt Q8IY92)", "log2 fold change": "inactive: -0.032"}
{"target": "SLC35B1 isoform 2 (UniProt P78383)", "log2 fold change": "inactive: 0.017"}
{"target": "SLC35A3 isoform 2 (UniProt Q9Y2D2)", "log2 fold change": "inactive: 0.056"}
{"target": "SLC25A16 (UniProt P16260)", "log2 fold change": "inactive: 0.015"}
{"target": "SMAD5 (UniProt Q99717)", "log2 fold change": "inactive: 0.05"}
{"target": "SLC25A36 (UniProt Q96CQ1)", "log2 fold change": "inactive: -0.031"}
{"target": "SLC40A1 (UniProt Q9NP59)", "log2 fold change": "inactive: -0.185"}
{"target": "SLU7 (UniProt O95391)", "log2 fold change": "inactive: 0.016"}
{"target": "SLC38A6 isoform 2 (UniProt Q8IZM9)", "log2 fold change": "inactive: 0.2"}
{"target": "SLC39A13 (UniProt Q96H72)", "log2 fold change": "inactive: -0.018"}
{"target": "SLC23A2 (UniProt Q9UGH3)", "log2 fold change": "inactive: -0.008"}
{"target": "SLC26A11 (UniProt Q86WA9)", "log2 fold change": "inactive: -0.321"}
{"target": "SLC41A1 (UniProt Q8IVJ1)", "log2 fold change": "inactive: 0.055"}
{"target": "SLC2A13 (UniProt Q96QE2)", "log2 fold change": "inactive: 0.048"}
{"target": "SLC39A6 (UniProt Q13433)", "log2 fold change": "inactive: -0.009"}
{"target": "SMAGP (UniProt Q0VAQ4)", "log2 fold change": "inactive: 0.028"}
{"target": "SLC35A1 (UniProt P78382)", "log2 fold change": "inactive: 0.081"}
{"target": "SLC29A3 (UniProt Q9BZD2)", "log2 fold change": "inactive: -0.012"}
{"target": "SLC50A1 (UniProt Q9BRV3)", "log2 fold change": "inactive: -0.066"}
{"target": "SLC27A6 (UniProt Q9Y2P4)", "log2 fold change": "inactive: -0.012"}
{"target": "SLC25A23 isoform 3 (UniProt Q9BV35)", "log2 fold change": "inactive: 0.01"}
{"target": "SLC66A2 (UniProt Q8N2U9)", "log2 fold change": "inactive: -0.127"}
